{"source": "PubChem BioAssay AID1224826 (NIAID, 2016)", "purpose": "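Regulators of Tlr4 signalling leading to Tnf-alpha expression in macrophages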 (primary screen)", "cells": "RAW264.7 G9 macrophages from mouse bearing reporters for p65 (GFP) and the Tnf promoter (mCherry)", "reagents": "siRNA pool against mouse genes, 100 nM", "duration": "16 h of LPS stimulation, after 2 days of siRNA transfection", "treatment": "bacterial lipopolysaccharide (Salmonella minnesota R595), 10 ng/ml", "detection": "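Imaged Tnf reporter mCherry in nuclei, minus background, normalised per plate to the median and expressed as robust z-scores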", "direction": "Tnf reporter robust z-score: higher = stronger Tnf promoter reporter signal after LPS", "call rule": "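a well counts as active at a score of -1.3 or below (Tlr4 knock-down control median) or above 3 (raised signal); controls and wells holding fewer than 50 cells are excluded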", "meaning of the calls": "active = Tnf reporter clearly lowered or raised; inactive = no clear change in Tnf reporter", "note": "Shown is a random part of about 17,000 reagents. About 1,110 of all reagents (6.6%) were called active. 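Active means lowered or raised reporter signal; replicate intensities are raw and not normalised per plate.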 Further read-outs or replicates are left out here."}
{"gene symbol": "Tube1", "Tnf reporter robust z-score": -0.15, "fewer than 50 cells in well": "enough cells in well", "activity call": "inactive"}
{"gene symbol": "Slc44a1", "Tnf reporter robust z-score": -0.27, "fewer than 50 cells in well": "enough cells in well", "activity call": "inactive"}
{"gene symbol": "Figla", "Tnf reporter robust z-score": -0.79, "fewer than 50 cells in well": "enough cells in well", "activity call": "inactive"}
{"gene symbol": "Gm6740", "Tnf reporter robust z-score": -0.84, "fewer than 50 cells in well": "enough cells in well", "activity call": "inactive"}
{"gene symbol": "Qsox1", "Tnf reporter robust z-score": 0.45, "fewer than 50 cells in well": "enough cells in well", "activity call": "inactive"}
{"gene symbol": "Ncoa6", "Tnf reporter robust z-score": 0.42, "fewer than 50 cells in well": "enough cells in well", "activity call": "inactive"}
{"gene symbol": "Psors1c2", "Tnf reporter robust z-score": -1.95, "fewer than 50 cells in well": "enough cells in well", "activity call": "active"}
{"gene symbol": "Swi5", "fewer than 50 cells in well": "fewer than 50 cells per well; well left out of calls", "activity call": "inactive"}
{"gene symbol": "Il17b", "Tnf reporter robust z-score": 1.01, "fewer than 50 cells in well": "enough cells in well", "activity call": "inactive"}
{"gene symbol": "Mrgpra7", "Tnf reporter robust z-score": 2.28, "fewer than 50 cells in well": "enough cells in well", "activity call": "inactive"}
{"gene symbol": "Ubl4b", "fewer than 50 cells in well": "fewer than 50 cells per well; well left out of calls", "activity call": "inactive"}
{"gene symbol": "Rmc1", "Tnf reporter robust z-score": 0.86, "fewer than 50 cells in well": "enough cells in well", "activity call": "inactive"}
{"gene symbol": "Col9a3", "Tnf reporter robust z-score": -0.24, "fewer than 50 cells in well": "enough cells in well", "activity call": "inactive"}
{"gene symbol": "Prkcb", "Tnf reporter robust z-score": -0.82, "fewer than 50 cells in well": "enough cells in well", "activity call": "inactive"}

The list goes on (3 carried over from the part before).
{"gene symbol": "Rmc1", "Tnf reporter robust z-score": 0.86, "fewer than 50 cells in well": "enough cells in well", "activity call": "inactive"}
{"gene symbol": "Col9a3", "Tnf reporter robust z-score": -0.24, "fewer than 50 cells in well": "enough cells in well", "activity call": "inactive"}
{"gene symbol": "Prkcb", "Tnf reporter robust z-score": -0.82, "fewer than 50 cells in well": "enough cells in well", "activity call": "inactive"}
{"gene symbol": "Slc20a2", "Tnf reporter robust z-score": 2.19, "fewer than 50 cells in well": "enough cells in well", "activity call": "inactive"}
{"gene symbol": "Slc2a12", "fewer than 50 cells in well": "fewer than 50 cells per well; well left out of calls", "activity call": "inactive"}
{"gene symbol": "Atp2b3", "Tnf reporter robust z-score": -0.86, "fewer than 50 cells in well": "enough cells in well", "activity call": "inactive"}
{"gene symbol": "Nup37", "Tnf reporter robust z-score": 0.47, "fewer than 50 cells in well": "enough cells in well", "activity call": "inactive"}
{"gene symbol": "Cyp4f39", "fewer than 50 cells in well": "fewer than 50 cells per well; well left out of calls", "activity call": "inactive"}
{"gene symbol": "Ube2s", "Tnf reporter robust z-score": -0.51, "fewer than 50 cells in well": "enough cells in well", "activity call": "inactive"}
{"gene symbol": "Eci3", "fewer than 50 cells in well": "fewer than 50 cells per well; well left out of calls", "activity call": "inactive"}
